Values of other authors as cited in US20210038566A1, “USE OF MODULATORS OF NEET PROTEINS FOR THE TREATMENT OF INFECTION” (ENYO PHARMA, priority 2018, published 2021).
Some of these results come from one statement about several compounds together. For at least one compound, name, drawing or mass did not settle the structure.

Target: T1, NEET protein (Homo sapiens, UniProt Q9NZ45)
T1 sequence (Q9NZ45 32-108 limits assumed): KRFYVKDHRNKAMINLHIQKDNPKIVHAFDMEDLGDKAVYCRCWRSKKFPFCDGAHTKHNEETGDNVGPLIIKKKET
Settings: compounds as described in Geldenhuys et al. 2016; cited from earlier work

SMILES: COc1ccc2c(C[C@@H]3NC(=O)[C@@H]4CCCN4C3=O)c(CC=C(C)C)[nH]c2c1 [Tryprostatin-A]
- IC50: < 10 µM
- Ki: < 0.4 µM
